These are yes or no findings as the source states them, for the method shown. Some entries that bind do so weakly or less than the wild type.

By UniProt entry, the sequences of proteins in these tests, tags left out.
UniProt P93002: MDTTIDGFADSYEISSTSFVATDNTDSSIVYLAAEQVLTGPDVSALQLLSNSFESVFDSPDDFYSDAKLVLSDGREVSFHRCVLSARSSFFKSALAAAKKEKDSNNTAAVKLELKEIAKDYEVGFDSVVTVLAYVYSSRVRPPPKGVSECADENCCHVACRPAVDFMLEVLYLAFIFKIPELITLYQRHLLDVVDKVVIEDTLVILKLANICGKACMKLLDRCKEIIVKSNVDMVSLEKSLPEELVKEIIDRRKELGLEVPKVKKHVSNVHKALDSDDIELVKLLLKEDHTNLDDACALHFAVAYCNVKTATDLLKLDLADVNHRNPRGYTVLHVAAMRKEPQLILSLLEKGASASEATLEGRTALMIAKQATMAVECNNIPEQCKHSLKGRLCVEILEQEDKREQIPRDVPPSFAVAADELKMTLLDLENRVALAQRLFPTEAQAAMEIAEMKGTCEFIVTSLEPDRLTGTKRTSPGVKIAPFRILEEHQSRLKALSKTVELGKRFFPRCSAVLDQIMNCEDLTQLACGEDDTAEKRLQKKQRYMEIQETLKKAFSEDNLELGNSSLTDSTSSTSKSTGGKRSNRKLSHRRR

Results on one substance are retold here after publication PMC4677692.

The target in the assay is T1, TGA2 (Arabidopsis) (UniProt P43273).
T1 sequence: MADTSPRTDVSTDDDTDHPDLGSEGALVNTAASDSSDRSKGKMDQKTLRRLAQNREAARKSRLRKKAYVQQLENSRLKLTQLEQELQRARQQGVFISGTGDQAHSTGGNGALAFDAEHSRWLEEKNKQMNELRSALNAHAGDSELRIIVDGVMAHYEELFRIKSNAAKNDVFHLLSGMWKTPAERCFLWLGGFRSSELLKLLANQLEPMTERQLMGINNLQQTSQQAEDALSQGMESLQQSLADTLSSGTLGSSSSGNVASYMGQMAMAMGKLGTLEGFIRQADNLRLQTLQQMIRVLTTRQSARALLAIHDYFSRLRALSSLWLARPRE
Briefly: two-hybrid; yeast strain SFY526 with Gal4RE::beta-Gal reporter (four copies of the Gal4-responsive element); Gal4 DNA-binding domain and activation domain fusions; qualitative beta-galactosidase assay.

With “nonexpressor of pathogenesis-related genes 1 (NPR1) (from UniProt P93002 1-593)”, the binding result is “binds”.
